Assay in all cases: log2 fold change, soluble protein after heating vs DMSO (PISA); higher = thermal stabilisation; K562 lysate, 10 uM; active = over 0.2 and 3.5 SD of the protein, either way, in both replicates (recomputed)
Compound in test [1]: c1ccc([C@@H]2C[C@H]2NC2CCNCC2)cc1
In outline:
(§1)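 The values are log-two fold changes in thermal stability compared with solvent controls and come from duplicates. They were obtained by TMTpro 16plex LC-MS/MS, with channel sums equalised, on the supernatant after 21,000xg for 90 min. That supernatant came from crude K562 extract at 1 mg/mL protein treated with 10 μM compound for 30 min, heated for 3 min across 48°C-58°C, pooled and brought to 0.5% NP-40 at 4°C.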

Chains of the proteins cited; added tags and fusions are not shown. Lines headed by an entry give the natural chain unless they say otherwise; changes in a name come on top.
UniProt Q9UJ68: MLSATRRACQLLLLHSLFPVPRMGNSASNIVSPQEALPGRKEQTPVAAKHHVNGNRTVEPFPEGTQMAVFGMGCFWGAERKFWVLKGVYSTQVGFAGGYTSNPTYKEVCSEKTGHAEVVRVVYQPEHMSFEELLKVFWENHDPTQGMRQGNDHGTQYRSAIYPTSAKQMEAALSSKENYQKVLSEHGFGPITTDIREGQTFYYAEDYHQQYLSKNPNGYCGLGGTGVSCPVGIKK
UniProt P03928: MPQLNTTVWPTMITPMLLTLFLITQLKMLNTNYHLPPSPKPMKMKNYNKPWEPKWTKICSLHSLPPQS
UniProt P03897, whole entry, looked up: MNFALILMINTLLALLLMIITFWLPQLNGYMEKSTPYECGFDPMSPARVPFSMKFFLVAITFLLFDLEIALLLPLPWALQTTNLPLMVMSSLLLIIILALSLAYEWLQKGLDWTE

Compound in test [2]: C1=CC=C(C=C1)[C@H](COC2=CC3=C(C=C2)NC(=O)N3)NC(=O)C4=CC=CN(C4=O)CC5=CC(=C(C=C5)F)F
In outline:
as §1

Compound in test [3]: CC1=C(SC2=C1C(=N[C@H](C3=NN=C(N32)C)CC(=O)N)C4=CC=C(C=C4)Cl)C
In outline:
as §1

Compound in test [4]: CC1=C2C(=CC=C1)N=C(N(C2=O)C3=CC=CC=C3C)CN4C=NC5=C(N=CN=C54)N
In outline: as §1

Some of the results follow.

As for MSRA (UniProt Q9UJ68), the log2 fold change in test [1] was inactive: 0.022.
As for MT-ATP8 (UniProt P03928), the log2 fold change in test [2] is inactive: -0.057; in test [3], inactive: 0.052; in test [4], inactive: 0.082; in test [1], inactive: 0.104.
Take MT-ND3 (UniProt P03897): the log2 fold change in test [2] is inactive: 0.078; in test [3] it was inactive: 0.137; in test [1], inactive: -0.075.

The record behind these values is the supplement of paper PMC10849652.
